Patent publication US6780986
These are yes or no findings as the source states them, for the method shown. Some results given as binding are weak or reduced against the parent protein; the word gives no strength. Where a sequence is shown, tags or fusion partners need not be part of it.

Target: GST-Z2-P123 (human) (UniProt Q9BWE0)
Assay: gel shift multimers on DNA probe (self-association on DNA)

- binding: binds
B1: GST-Z2-P123 (protein, not shown: a dimerising Fc or GST)
chain: GGDAVDRPFQCACCGKRFRHKPNLIAHRRVHTGERPHQCPECGKRFTNKPYLTSHRRIHTGEKPYPCKECGRRFRHKPNLLSHSKIHKRSEGSAQAAPGPGSPQLPAGPQESAAEPTPAVPLKPAQEPPPGAPPEHPQDPIEAPPSL
